The list is a part of this screen's results and no random one: it gathers tests that were run many times, whatever their T/C, doses with no T/C, and many T/C values between a quarter and a half above the control. Further doses and runs are listed elsewhere. T/C is the treated group as % of the vehicle group. Schedule codes are those of the source, read here as Q, the interval in days (D) or hours (H), X, the number of doses. Some values lie below zero, which means that the treated tumours became smaller. Some doses were run more than once; the results are listed from low to high. Some T/C values are followed by the survivors on the day toxicity was checked, most often the fifth; without a count, all were alive then. Some entries give survivors of the animals treated and no T/C: the source holds a T/C of zero for them, seemingly a mark for toxic or unscored doses. Survivors were counted at the toxicity check, usually on the fifth day, unless a day is given; later deaths do not show.
Tested on: HT29 intrarenal xenograft, nude mice, tumor weight change
Test: NCI In Vivo Anticancer Drug Screen. Data for tumor model HT29;CX-1 Human Adenocarcinoma (MER+) (intrarenal inoculation) in NU/NU BALB/C (nude) mice
Details: T/C endpoint: mean tumor weight change, higher T/C = larger tumour
Description: The antitumor activity of compounds was measured in mice bearing transplantable tumors. Survival or tumor size were measured and the results are expressed as the measurement made in the treated group (T) divided by the measurement made in the vehicle treated control group (C). The tumor model used in this assay is HT29;CX-1 Human Adenocarcinoma (MER+) (intrarenal inoculation) in NU/NU BALB/C (nude) mice

[1] = dose: 600.0 mg/kg/injection, schedule: Q04DX004 (sc), vehicle: saline
[2] = dose: 1200.0 mg/kg/injection, schedule: Q04DX004 (sc), vehicle: saline

`CC(C)CCC(=O)c1ccoc1` was tested, and the survivor count (dose: 12.0 mg/kg/injection, schedule: Q01DX010 (ip), vehicle: saline with Tween-80) was 0 of 6 on day 11 and the survivor count (dose: 24.0 mg/kg/injection, schedule: Q01DX010 (ip), vehicle: saline with Tween-80) was 0 of 6 on day 11.

In the case of `NC(Cc1ccc(N(CCCl)CCCl)cc1)C(=O)O` (stereo unspecified), the survivor count (dose: 40.0 mg/kg/injection, schedule: Q04DX004 (sc), vehicle: saline) is reported as 0 of 6 on day 15.

With `NC(=O)CCC(N)C(=O)O` (stereo unspecified) the T/C (dose: 300.0 mg/kg/injection, schedule: Q04DX004 (ip), vehicle: suspension in saline, evaluated on day 15) was 143 % of control.

For `ClCCCN1CCCCC1CCl` (stereo unspecified), the survivor count (dose: 50.0 mg/kg/injection, schedule: Q04DX004 (sc), vehicle: saline) was 0 of 6 on day 15.

`COc1cc([C@@H]2c3cc4c(cc3[C@@H](OC3OC5CO[C@@H](c6cccs6)OC5C(O)C3O)[C@H]3COC(=O)[C@H]23)OCO4)cc(OC)c1O` (stereo partly specified) was tested, and the T/C (dose: 64.0 mg/kg/injection, schedule: Q01DX010 (sc), vehicle: saline, evaluated on day 11) was 146 % of control.

With `CN(N=O)C(=O)N[C@@H](C=O)[C@@H](O)[C@H](O)[C@H](O)CO` the survivor count [1] was 0 of 6 on day 15 and the survivor count [2] was 0 of 6 on day 15.

For `Cn1c(=O)[nH]c2nncnc2c1=O`, the survivor count (dose: 120.0 mg/kg/injection, schedule: Q04DX004 (sc), vehicle: water) was 3 of 6 on day 15, the survivor count (dose: 240.0 mg/kg/injection, schedule: Q04DX004 (sc), vehicle: water) was 0 of 6 on day 15 and the survivor count (dose: 480.0 mg/kg/injection, schedule: Q04DX004 (sc), vehicle: water) was 0 of 6 on day 15.

For `CCC1OC(OC)C=CC1=O` (stereo unspecified), the T/C (dose: 150.0 mg/kg/injection, schedule: Q04DX004 (sc), vehicle: saline, evaluated on day 15) was 126 % of control [4 of 6 alive on day 15], the survivor count (dose: 300.0 mg/kg/injection, schedule: Q04DX004 (sc), vehicle: saline) was 0 of 6 on day 15 and the survivor count [1] was 0 of 6 on day 15. The survivor count [2] was 0 of 6 on day 15.

In the case of `COC(=O)[C@@]12OC[C@]34[C@H]([C@@H](O)[C@@H]1O)[C@@]1(C)CC(=O)C(O)=C(C)[C@@H]1C[C@H]3OC(=O)[C@H](OC(=O)/C=C(\C)C(C)C)[C@@H]24`, the survivor count (dose: 1.0 mg/kg/injection, schedule: Q01DX010 (sc), vehicle: saline + alcohol) is reported as 0 of 3 on day 11, the survivor count (dose: 2.0 mg/kg/injection, schedule: Q01DX010 (sc), vehicle: saline + alcohol) is reported as 0 of 3 on day 11 and the survivor count (dose: 4.0 mg/kg/injection, schedule: Q01DX010 (sc), vehicle: saline + alcohol) is reported as 0 of 3 on day 11.

`O=C1C=CC(n2cc(F)c(=O)[nH]c2=O)O1` (stereo unspecified) was tested, and the survivor count (dose: 300.0 mg/kg/injection, schedule: Q04DX004 (sc), vehicle: suspension in saline) was 0 of 4 on day 15.

With `CCc1ccc(C2=C(O)C(=O)C(c3ccc(CC)cc3)=C(O)C2=O)cc1` the survivor count (dose: 800.0 mg/kg/injection, schedule: Q04DX004 (sc), vehicle: saline with Tween-80) was 0 of 6 on day 15.

For `N[C@@H](Cc1ccc(N(CCCl)CCCl)cc1)C(=O)O`, the T/C (dose: 4.0 mg/kg/injection, schedule: Q04DX004 (ip), vehicle: saline, evaluated on day 15) was 13, 53, 88, 129 % of control, the T/C (dose: 6.0 mg/kg/injection, schedule: Q04DX004 (ip), vehicle: saline, evaluated on day 15) was -41, 32, 35, 117 % of control and the survivor count (dose: 8.0 mg/kg/injection, schedule: Q01DX010 (sc), vehicle: saline) was 0 of 3 on day 11. The T/C (dose: 9.0 mg/kg/injection, schedule: Q04DX004 (ip), vehicle: saline, evaluated on day 15) was -37, 11, 41, 65 % of control [4 of 5 alive on day 15].

With `CC[C@@]1(O)C[C@H](OC2CC(N(C)C)C(OC3CC(O)C(OC4CCC(=O)C(C)O4)C(C)O3)C(C)O2)c2c(cc3c(c2O)C(=O)c2c(O)cccc2C3=O)[C@H]1C(=O)OC` (stereo partly specified) the survivor count (dose: 4.0 mg/kg/injection, schedule: Q01DX010 (ip), vehicle: water) was 0 of 6 on day 11 and the survivor count (dose: 8.0 mg/kg/injection, schedule: Q01DX010 (ip), vehicle: water) was 0 of 6 on day 11.

For `NC(CNC(=O)CBr)C(=O)O` (stereo unspecified), the survivor count (dose: 300.0 mg/kg/injection, schedule: Q04DX004 (sc), vehicle: water) was 0 of 6 on day 15.

`c1ccc2c(NCCCCCCNc3c4ccccc4nc4ccccc34)c3ccccc3nc2c1` was tested, and the survivor count (dose: 20.0 mg/kg/injection, schedule: Q01DX010 (sc), vehicle: Klucel (hydroxypropylcellulose) (HPC)) was 3 of 6 on day 11 and the survivor count (dose: 40.0 mg/kg/injection, schedule: Q01DX010 (sc), vehicle: Klucel (hydroxypropylcellulose) (HPC)) was 0 of 6 on day 11.

With `Nc1ccc(Cn2ccc3c4c(N)nc(N)nc4ccc32)cc1` the survivor count (dose: 75.0 mg/kg/injection, schedule: Q04DX004 (sc), vehicle: saline with Tween-80) was 0 of 6 on day 15 and the survivor count (dose: 150.0 mg/kg/injection, schedule: Q04DX004 (sc), vehicle: saline with Tween-80) was 0 of 6 on day 15.

`OCC(O)C(O)C(O)C(O)CO` (stereo unspecified) was tested, and the T/C (dose: 1200.0 mg/kg/injection, schedule: Q04DX004 (ip), vehicle: saline, evaluated on day 11) was 129 % of control.

For `O=C(Nc1cc(Cl)ccc1C(=O)O)c1cccc(C[n+]2ccccc2)c1`, the T/C (dose: 75.0 mg/kg/injection, schedule: Q04DX004 (ip), vehicle: saline with Tween-80, evaluated on day 15) was 130 % of control and the survivor count (dose: 600.0 mg/kg/injection, schedule: Q04DX004 (ip), vehicle: saline with Tween-80) was 2 of 6 on day 15.

With `Cc1c(N)nc([C@H](CC(N)=O)NC[C@H](N)C(N)=O)nc1C(=O)N[C@H](C(=O)N[C@H](C)[C@@H](O)[C@H](C)C(=O)N[C@H](C(=O)NCCc1nc(-c2nc(C(=O)NCCC[S+](C)C)cs2)cs1)[C@@H](C)O)C(OC1OC(CO)C(O)C(O)C1OC1OC(CO)C(O)C(OC(N)=O)C1O)c1cnc[nH]1` (stereo partly specified) the T/C (dose: 16.0 mg/kg/injection, schedule: Q04DX004 (ip), vehicle: saline, evaluated on day 15) was 39, 86, 98, 161 % of control, the T/C (dose: 24.0 mg/kg/injection, schedule: Q04DX004 (ip), vehicle: saline, evaluated on day 15) was 51, 104, 120 [5 of 6 alive on day 15], 181 % of control and the T/C (dose: 36.0 mg/kg/injection, schedule: Q04DX004 (ip), vehicle: saline, evaluated on day 15) was 37, 72, 82, 114 % of control.

With `CC(=O)OCC(=O)[C@@]12OC(C)(C)O[C@@H]1C[C@H]1[C@@H]3CC(C=O)=C4C=C(OCCCl)CC[C@]4(C)[C@@]3(F)[C@@H](O)C[C@@]12C` the survivor count (dose: 200.0 mg/kg/injection, schedule: Q04DX004 (sc), vehicle: Klucel (hydroxypropylcellulose) (HPC)) was 0 of 6 on day 15 and the survivor count (dose: 400.0 mg/kg/injection, schedule: Q04DX004 (sc), vehicle: Klucel (hydroxypropylcellulose) (HPC)) was 0 of 6 on day 15.

`CN(C)c1nc(N(C)C)nc(N(C)C)n1` was tested, and the survivor count (dose: 400.0 mg/kg/injection, schedule: Q01DX010 (sc), vehicle: saline with Tween-80) was 0 of 2 on day 11.

With `C=CS(=O)(=O)c1ccccc1` the T/C (dose: 25.0 mg/kg/injection, schedule: Q01DX010 (sc), vehicle: saline, evaluated on day 11) was 130 % of control and the survivor count (dose: 200.0 mg/kg/injection, schedule: Q01DX010 (sc), vehicle: saline) was 0 of 3 on day 11.

In the case of `COc1cc(O)c2c(O)c3c(c4c2c1[C@]1(C4)C(C)=CCCC1(C)C)[C@H](O)[C@@]1(O)CC(=O)C(C(N)=O)=C(O)[C@@]1(O)C3=O`, the survivor count (dose: 75.0 mg/kg/injection, schedule: Q04DX004 (ip), vehicle: saline with Tween-80) is reported as 2 of 6 on day 15.

With `CN=C(NC#N)NCCSCc1nc[nH]c1C` the T/C (dose: 1800.0 mg/kg/injection, schedule: Q04DX004 (sc), vehicle: Klucel (hydroxypropylcellulose) (HPC), evaluated on day 15) was 135 % of control [5 of 6 alive on day 15].

With `COC1C(C)OC(OC2CC(C)(O)Cc3cc4c(c(O)c32)C(=O)c2c(O)cc3c(c2C4=O)OC2OC3(C)C(O)C(N(C)C)C2O)C(OC)C1(C)OC` (stereo unspecified) the survivor count (dose: 80.0 mg/kg/injection, schedule: Q04DX004 (sc), vehicle: Klucel (hydroxypropylcellulose) (HPC)) was 1 of 6 on day 15 and the survivor count (dose: 160.0 mg/kg/injection, schedule: Q04DX004 (sc), vehicle: Klucel (hydroxypropylcellulose) (HPC)) was 2 of 5 on day 15.

In the case of `C[N+](C)(C)c1ncnc2nc[nH]c12`, the survivor count (dose: 400.0 mg/kg/injection, schedule: Q01DX010 (sc), vehicle: saline) is reported as 0 of 3 on day 11.

In the case of `CN(C)/N=N/c1nc[nH]c1C(N)=O`, the T/C (dose: 100.0 mg/kg/injection, schedule: Q04DX004 (ip), vehicle: Klucel (hydroxypropylcellulose) (HPC), evaluated on day 15) is reported as 144 % of control, the T/C (dose: 150.0 mg/kg/injection, schedule: Q04DX004 (ip), vehicle: Klucel (hydroxypropylcellulose) (HPC), evaluated on day 15) is reported as 140 % of control and the T/C (dose: 225.0 mg/kg/injection, schedule: Q04DX004 (ip), vehicle: Klucel (hydroxypropylcellulose) (HPC), evaluated on day 15) is reported as 139 % of control. The T/C (dose: 225.0 mg/kg/injection, schedule: Q04DX004 (ip), vehicle: saline, evaluated on day 15) was 127 % of control.
